This experiment has as its target ADAMTS-5 lacking the C-terminal thrombospondin domain (UniProt Q9UNA0). Nature of the experiment: enzyme inhibition under equilibrium conditions (Ki(app), tight binding equation); apparent; ADAMTS-5 (0.5 nM) preincubated with TIMP-3 (0.5-10 nM) with heparin (100 nM) 1 h at 37 °C, residual activity 18 h at 37 °C; 50 mM Tris-HCl pH 7.5, 150 mM NaCl, 10 mM CaCl2, 0.05% Brij 35, 0.02% NaN3; both purified.

By UniProt entry, the sequences of proteins in these tests, tags left out. Where a name states a change or a piece, a line headed by the entry shows the natural chain unless it says otherwise.
UniProt Q9UNA0: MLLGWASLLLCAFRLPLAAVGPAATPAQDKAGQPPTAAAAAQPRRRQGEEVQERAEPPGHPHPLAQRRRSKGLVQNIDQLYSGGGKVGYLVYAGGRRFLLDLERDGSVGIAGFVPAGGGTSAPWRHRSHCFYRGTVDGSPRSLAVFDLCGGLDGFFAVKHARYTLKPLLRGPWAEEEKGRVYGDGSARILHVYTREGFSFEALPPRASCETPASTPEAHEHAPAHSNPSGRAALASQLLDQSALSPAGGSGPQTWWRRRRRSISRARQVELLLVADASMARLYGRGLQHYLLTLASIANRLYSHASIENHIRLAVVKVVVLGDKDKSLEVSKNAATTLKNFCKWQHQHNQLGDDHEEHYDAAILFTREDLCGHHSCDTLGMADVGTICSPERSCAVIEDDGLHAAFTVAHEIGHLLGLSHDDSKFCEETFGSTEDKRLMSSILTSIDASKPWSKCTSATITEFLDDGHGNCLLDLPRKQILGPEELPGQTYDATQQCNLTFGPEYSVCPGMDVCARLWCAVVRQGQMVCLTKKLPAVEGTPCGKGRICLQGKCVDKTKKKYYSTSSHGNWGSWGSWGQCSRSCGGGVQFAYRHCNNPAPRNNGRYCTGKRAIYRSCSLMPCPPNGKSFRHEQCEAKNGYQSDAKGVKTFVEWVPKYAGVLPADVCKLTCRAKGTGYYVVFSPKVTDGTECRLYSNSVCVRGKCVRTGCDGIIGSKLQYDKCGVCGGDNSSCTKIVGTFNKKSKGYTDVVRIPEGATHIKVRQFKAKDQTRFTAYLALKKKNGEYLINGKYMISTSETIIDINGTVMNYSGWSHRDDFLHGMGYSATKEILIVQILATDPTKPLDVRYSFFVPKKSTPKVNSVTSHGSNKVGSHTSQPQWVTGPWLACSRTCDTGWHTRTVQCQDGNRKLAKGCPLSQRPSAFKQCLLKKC

Results are given in words; binding and its absence hold for the method and conditions named. Binding calls can cover weak binding; strength is not graded here. Tags and fused reporters may be left off the sequences shown.

Among the data in paper PMC5063997, “Engineered Tissue Inhibitor of Metalloproteinases-3 Variants Resistant to Endocytosis Have Prolonged Chondroprotective Activity*” (The Journal of Biological Chemistry, 2016) are binding values, retold here.

B1: wild-type TIMP-3 (tissue inhibitor of metalloproteinases-3), C-terminally FLAG-tagged (natural protein, UniProt P35625 24-211, looked up)
chain: CTCSPSHPQDAFCNSDIVIRAKVVGKKLVKEGPFGTLVYTIKQMKMYRGFTKMPHVQYIHTEASESLCGLKLEVNKYQYLLTGRVYDGKMYTGLCNFVERWDQLTLSQRKGLNYRYHLGCNCKIKSCYYLPCFVTSKNECLWTDMLSNFGYPGYQSKHYACIRQKGGYCSWYRGWAPPDKSIINATDP
notes: TIMP-3, secreted into the conditioned medium; source: for the screen also transiently transfected, conditioned medium dialyzed against TBS; not shown: FLAG, C-terminal, kept
On to B1, for which the binding entry is “binds”.

B2: TIMP-3 K26A/K45A, C-terminally FLAG-tagged (natural protein, UniProt P35625 24-211, looked up)
chain: CTCSPSHPQDAFCNSDIVIRAKVVGAKLVKEGPFGTLVYTIKQMAMYRGFTKMPHVQYIHTEASESLCGLKLEVNKYQYLLTGRVYDGKMYTGLCNFVERWDQLTLSQRKGLNYRYHLGCNCKIKSCYYLPCFVTSKNECLWTDMLSNFGYPGYQSKHYACIRQKGGYCSWYRGWAPPDKSIINATDP
notes: as for B1
With B2, the binding result was “binds”.
